{"source": "patent US6248895A", "about": "“Benzofuroxan compound, method of preparation, pharmaceutical composition and method of treatment using the same” (Torrent Pharmaceuticals Ltd., priority 1998, dated 2001)", "tested_on": "thoracic aorta (albino rabbit, helical strips, endothelium removed)", "assay": "In vitro screening of NO donors: relaxation of endothelium-denuded rabbit thoracic aorta strips, before and after GTN-induced tolerance", "type": "cell-based", "conditions": "relative to GTN", "experimental": "a) In vitro Screening of NO Donors\nThe method adopted was a modified method of Nishikawa et al (1982). Albino rabbits of either sex were stunned and exsanguinated. Thoracic aorta was quickly removed and cut helically (at an angle of […]) into strips 4-5 mm wide and 25 to 30 mm long, after removal of adventitial connective tissue. The endothelium was rubbed off gently using a cotton swab soaked in Kreb's solution. Two strips were fixed vertically in organ baths containing 20 ml. Kreb's solution maintained at 37° C. and bubbled with oxygen. A resting tension of 4 g was applied and the preparation was allowed to equilibrate for 30 min. Each preparation was exposed to two primer doses of KCl (30 mM). After the contraction reached a maximum, the bath was drained off and replaced with fresh Kreb's solution. Half an hour later, cumulative dose response curve for the test compound was taken on one tissue (test) and for glyceryl trinitrate (GTN) in the other (standard). The dose range used was from 10^-9 M to 10^-3 M with a contact period of 4 min. for each dose.\nTolerance was induced in both the tissues by adding 440 μM of GTN for 90 minutes. During this period the bath solution was changed every 30 min. and 440 μM of GTN was replaced. […] The percentage relaxation with individual doses was calculated by taking the maximum relaxations to 10^-4 M papaverine as 100% relaxation. […]", "note": "The name of at least one read-out is uncertain.", "data": [{"compound": "O=C(OC1COC2C(O[N+](=O)[O-])COC12)c1ccc2c(c1)no[n+]2[O-]", "note": "(centres unmarked) [Compound 11, 5(6)-(isosorbide mononitrateoxy carbonyl) benzofuroxan]", "values": [{"measurement": "Mean Activity Ratio After Tolerance", "setting": "after tolerance induced by 440 μM GTN for 90 min", "value": 1.63}, {"measurement": "Mean Activity Ratio Before Tolerance", "setting": "before tolerance", "value": 1.37}]}]}
